# Test results published in article PMC12455437 (Angewandte Chemie (International Ed. in English), 2025).
# Assay: general procedure: Fmoc solid-phase peptide synthesis; TentaGel S TRT Cl (0.22 µmol/mg) and TentaGel R RAM (0.19 µmol/mg); HCTU/OxymaPure/NMM
# Details: conjugation step
row,Substance,conjugation yield [%]
1,3-CGCATTCCTCTAGACCTTACT-5,60
2,3-C*GCATTCCTCTAGACCTTACT-5,60
